Results are given in words; binding and its absence hold for the method and conditions named. Some entries that bind do so weakly or less than the wild type.
Experiments:
Assay in all cases: peptide or protein array; SPOT array, cellulose-bound peptides; GST-tagged Rhodanese domain 150 µM in 5% skim milk in TBST overnight at 4 °C; detected with HRP-conjugated anti-GST antibody; both purified
[1] = molecular target: T1, RAB3A interacting protein 82-95 peptide, cellulose-bound (SPOT array) (UniProt Q96QF0)
T1 sequence (peptide): QPVYSSPRRLNCAE

Protein sequences, listed by entry. Tags and fused reporters are not part of them. Lines headed by an entry give the natural chain unless they say otherwise; changes in a name come on top. Residues count along the entry.
UniProt Q96QF0: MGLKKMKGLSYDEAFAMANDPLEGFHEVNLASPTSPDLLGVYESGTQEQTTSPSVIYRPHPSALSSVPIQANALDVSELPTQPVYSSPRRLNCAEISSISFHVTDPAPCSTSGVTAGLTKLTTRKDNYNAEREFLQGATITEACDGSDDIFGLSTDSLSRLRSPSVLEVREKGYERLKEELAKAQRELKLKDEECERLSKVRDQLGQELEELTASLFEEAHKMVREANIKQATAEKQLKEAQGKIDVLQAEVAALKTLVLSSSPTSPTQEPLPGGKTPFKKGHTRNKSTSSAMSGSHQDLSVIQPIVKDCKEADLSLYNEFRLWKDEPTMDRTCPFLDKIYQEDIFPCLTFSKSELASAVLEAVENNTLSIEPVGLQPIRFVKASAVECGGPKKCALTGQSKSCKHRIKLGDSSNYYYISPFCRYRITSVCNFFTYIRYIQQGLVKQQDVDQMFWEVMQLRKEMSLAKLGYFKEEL
UniProt P40818, residues 174-317: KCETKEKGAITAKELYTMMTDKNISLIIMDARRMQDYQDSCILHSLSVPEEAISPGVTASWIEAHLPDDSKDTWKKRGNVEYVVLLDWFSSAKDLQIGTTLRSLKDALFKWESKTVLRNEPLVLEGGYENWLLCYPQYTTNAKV

[2] = molecular target: T2, SHANK3 351-365 peptide, cellulose-bound (SPOT array)
T2 sequence (peptide): SYAKRRRLAGPSGLA

[3] = molecular target: T3, SHANK3 392-406 peptide, cellulose-bound (SPOT array)
T3 sequence (peptide): SLRSLPHQLLLQRLQ

Measured: binding

GST-tagged USP8 rhodanese domain (174-317) (from UniProt P40818 174-317) (domain or fragment)
binds weakly: all assays above

— paper PMC12057046, “Elucidation of short linear motif-based interactions of the MIT and rhodanese domains of the ubiquitin-specific protease 8” (Biology Direct, 2025)
